According to article PMC10175288:
These are yes or no findings as the source states them, for the method shown. In cells and extracts the contact can be indirect. A yes stands for co-enrichment or nearness to the bait. Other partners may have been found. Sequences can lack the tags named with a protein.

Sequences of proteins named here, by UniProt entry; tags and fusion partners are left off.
UniProt P35222: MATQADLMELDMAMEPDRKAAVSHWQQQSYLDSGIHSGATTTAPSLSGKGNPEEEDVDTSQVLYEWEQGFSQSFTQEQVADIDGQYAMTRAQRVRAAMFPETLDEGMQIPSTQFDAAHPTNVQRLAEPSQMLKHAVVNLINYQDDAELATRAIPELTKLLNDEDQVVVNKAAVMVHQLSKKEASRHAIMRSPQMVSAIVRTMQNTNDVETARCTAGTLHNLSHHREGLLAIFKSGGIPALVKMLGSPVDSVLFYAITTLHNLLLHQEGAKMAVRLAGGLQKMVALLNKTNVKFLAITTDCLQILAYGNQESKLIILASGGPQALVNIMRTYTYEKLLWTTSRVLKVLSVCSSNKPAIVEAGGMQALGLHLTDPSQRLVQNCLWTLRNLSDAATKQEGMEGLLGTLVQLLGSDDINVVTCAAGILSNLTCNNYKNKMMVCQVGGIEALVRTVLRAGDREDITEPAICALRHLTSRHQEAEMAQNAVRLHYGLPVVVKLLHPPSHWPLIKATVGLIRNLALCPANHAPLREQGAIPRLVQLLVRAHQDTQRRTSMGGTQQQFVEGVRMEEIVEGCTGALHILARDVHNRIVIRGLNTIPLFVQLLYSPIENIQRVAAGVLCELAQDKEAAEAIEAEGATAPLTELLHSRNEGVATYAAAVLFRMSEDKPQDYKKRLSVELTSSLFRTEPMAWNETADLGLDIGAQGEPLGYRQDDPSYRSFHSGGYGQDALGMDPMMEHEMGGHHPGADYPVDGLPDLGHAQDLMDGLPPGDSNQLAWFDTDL
UniProt P49841: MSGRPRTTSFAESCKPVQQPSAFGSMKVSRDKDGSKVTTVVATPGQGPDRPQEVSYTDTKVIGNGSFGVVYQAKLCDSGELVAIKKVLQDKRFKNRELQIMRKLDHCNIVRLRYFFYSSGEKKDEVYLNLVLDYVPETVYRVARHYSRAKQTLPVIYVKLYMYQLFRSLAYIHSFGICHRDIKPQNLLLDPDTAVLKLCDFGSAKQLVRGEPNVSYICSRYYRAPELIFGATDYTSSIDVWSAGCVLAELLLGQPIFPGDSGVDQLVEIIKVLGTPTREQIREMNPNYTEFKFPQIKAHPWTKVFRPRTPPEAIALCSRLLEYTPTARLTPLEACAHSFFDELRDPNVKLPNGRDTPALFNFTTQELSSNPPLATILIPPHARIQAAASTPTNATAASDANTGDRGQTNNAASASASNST

target: T1, fusion p140Cap-BirA-HA protein (UniProt Q9QWI6); assay: proximity labelling; BioID in HEK293 cells transfected with p140Cap-BirA-HA or BirA-HA together with Axin1-GFP; 50 uM D-biotin for 3 h; biotinylated proteins isolated on streptavidin agarose and immunoblotted
T1 sequence: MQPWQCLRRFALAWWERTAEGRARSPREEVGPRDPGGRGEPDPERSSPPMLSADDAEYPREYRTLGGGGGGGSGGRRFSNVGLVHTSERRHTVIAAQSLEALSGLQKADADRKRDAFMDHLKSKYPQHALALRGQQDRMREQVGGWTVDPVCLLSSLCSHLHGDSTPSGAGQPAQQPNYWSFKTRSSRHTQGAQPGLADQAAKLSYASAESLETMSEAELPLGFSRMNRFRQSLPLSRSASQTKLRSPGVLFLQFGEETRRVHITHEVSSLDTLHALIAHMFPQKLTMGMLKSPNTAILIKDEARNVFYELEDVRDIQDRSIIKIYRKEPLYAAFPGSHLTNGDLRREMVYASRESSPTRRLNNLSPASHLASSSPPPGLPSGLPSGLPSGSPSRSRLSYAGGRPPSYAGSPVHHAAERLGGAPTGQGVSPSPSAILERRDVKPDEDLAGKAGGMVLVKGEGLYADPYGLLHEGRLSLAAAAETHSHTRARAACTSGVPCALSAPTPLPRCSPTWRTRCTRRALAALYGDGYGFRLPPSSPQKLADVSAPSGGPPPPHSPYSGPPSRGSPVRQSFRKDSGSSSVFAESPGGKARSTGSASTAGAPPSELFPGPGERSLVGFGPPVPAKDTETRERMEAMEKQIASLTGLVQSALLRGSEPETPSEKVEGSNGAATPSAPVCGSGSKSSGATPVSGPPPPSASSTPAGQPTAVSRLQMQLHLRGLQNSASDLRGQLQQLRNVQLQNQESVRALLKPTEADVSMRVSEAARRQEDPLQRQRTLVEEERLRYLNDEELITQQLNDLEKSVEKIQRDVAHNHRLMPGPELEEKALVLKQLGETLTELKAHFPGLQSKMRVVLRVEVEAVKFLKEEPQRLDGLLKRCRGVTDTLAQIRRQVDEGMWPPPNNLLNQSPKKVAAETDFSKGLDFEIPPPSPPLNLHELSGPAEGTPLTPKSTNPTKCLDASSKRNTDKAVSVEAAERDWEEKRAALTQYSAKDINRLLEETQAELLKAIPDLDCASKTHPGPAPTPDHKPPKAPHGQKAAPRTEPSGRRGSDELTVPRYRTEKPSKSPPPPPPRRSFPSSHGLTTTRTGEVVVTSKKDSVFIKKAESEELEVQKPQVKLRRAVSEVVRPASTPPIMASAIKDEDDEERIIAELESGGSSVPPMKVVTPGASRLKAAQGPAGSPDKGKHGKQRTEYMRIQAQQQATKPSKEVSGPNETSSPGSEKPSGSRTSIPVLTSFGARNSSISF

binding, binds:
triple phosphorylated inactive β-Catenin (endogenous in HEK293) (from UniProt P35222 1-781)
Axin1-GFP (from UniProt O15169-1 1-862)
total β-Catenin (endogenous in HEK293) (from UniProt P35222 1-781)
GSK-3β (endogenous in HEK293) (from UniProt P49841 1-420) (enzyme)
